Test system: DYT1 patient plasma derived EVs
Assay: Plasma-derived EV proteomics (ExoQuick ULTRA, DIA LC/MS/MS), DYT1 vs Healthy Controls
Design: species or system human
Conditions: for Mean DYT1 / Mean HC: protein abundance; for Mean DYT1: DYT1 patients; for Mean HC: healthy controls (HC); for Directionality / Log2_FC: Hs. Plasma EVs (DYT1/WT); for Log2_FC: protein level, human patient derived EVs by genotype; for Hs. Plasma EVs (DYT1/WT): directionality of protein change, human plasma derived EVs, DYT1 vs WT(HC); for Log2FC: DYT1 patients as compared to healthy controls
Procedure, shortened: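 Quantitative LC/MS/MS in data-independent acquisition on an Orbitrap Astral (4 m/z windows over m/z 380-980, HCD 27%), 500 ng of each EV sample. EVs were isolated from plasma by ExoQuick ULTRA, separated by EvoSep SPD30 gradient at 50 C.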

| Molecule | Mean DYT1 | Mean HC | Directionality | Log2_FC | Hs. Plasma EVs (DYT1/WT) | Log2FC |
| --- | --- | --- | --- | --- | --- | --- |
| ACOX3 (protein, UniProt O15254 2-700, looked up) Peroxisomal acyl-coenzyme A …: ASTVEGGDTALLPEFPRGPLDAYRARASFSWKELALFTEGEGMLRFKKTIFSALENDPLFARSPGADLSLEKYRELNFLRCKRIFEYDFLSVEDMFKSPLKVPALIQCLGMYDSSLAAKYLLHSLVFGSAVYSSGSERHLTYIQKIFRMEIFGCFALTELSHGSNTKAIRTTAHYDPATEEFIIHSPDFEAAKFWVGNMGKTATHAVVFAKLCVPGDQCHGLHPFIVQIRDPKTLLPMPGVMVGDIGKKLGQNGLDNGFAMFHKVRVPRQSLLNRMGDVTPEGTYVSPFKDVRQRFGASLGSLSSGRVSIVSLAILNLKLAVAIALRFSATRRQFGPTEEEEIPVLEYPMQQWRLLPYLAAVYALDHFSKSLFLDLVELQRGLASGDRSARQAELGREIHALASASKPLASWTTQQGIQECREACGGHGYLAMNRLGVLRDDNDPNCTYEGDNNILLQQTSNYLLGLLAHQVHDGACFRSPLKSVDFLDAYPGILDQKFEVSSVADCLDSAVALAAYKWLVCYLLRETYQKLNQEKRSGSSDFEARNKCQVSHGRPLALAFVELTVVQRFHEHVHQPSVPPSLRAVLGRLSALYALWSLSRHAALLYRGGYFSGEQAGEVLESAVLALCSQLKDDAVALVDVIAPPDFVLDSPIGRADGELYKNLWGAVLQESKVLERASWWPEFSVNKPVIGSLKSKL | 4.229 | 4.92 | – | – | – | – |
| BZW2 (protein, UniProt Q9Y6E2 1-419, looked up) eIF5-mimic protein 1: MNKHQKPVLTGQRFKTRKRDEKEKFEPTVFRDTLVQGLNEAGDDLEAVAKFLDSTGSRLDYRRYADTLFDILVAGSMLAPGGTRIDDGDKTKMTNHCVFSANEDHETIRNYAQVFNKLIRRYKYLEKAFEDEMKKLLLFLKAFSETEQTKLAMLSGILLGNGTLPATILTSLFTDSLVKEGIAASFAVKLFKAWMAEKDANSVTSSLRKANLDKRLLELFPVNRQSVDHFAKYFTDAGLKELSDFLRVQQSLGTRKELQKELQERLSQECPIKEVVLYVKEEMKRNDLPETAVIGLLWTCIMNAVEWNKKEELVAEQALKHLKQYAPLLAVFSSQGQSELILLQKVQEYCYDNIHFMKAFQKIVVLFYKADVLSEEAILKWYKEAHVAKGKSVFLDQMKKFVEWLQNAEEESESEGEEN | 3.536 | 4.31 | DOWN | -0.7772 | DOWN | – |
| RNF39 (protein, UniProt Q9H2S5 1-420, looked up) RING finger protein 39: MWWRDLTRLRLWLKREAIPGEGRKAAKVNAGVGEKGIYTASSRGGPPSARSKAVTVVAEGAASRSWLSMDAPELGPGLVERLEQLATCPLCGGSFEDPVLLACEHSFCRACLARRWGTPPATGTEASPTACPCCGLPCPRRSLRSNVRLAVEVRISRELREKLAEPGARAGRRRGGRIPTMGCLDLPGEDMRKTWRRFEVPTSKSSNSEDDLPEDYPVVKKMLHRLTADLTLDPGTAHRRLLISADRRSVQLAPPGTPAPPDGPKRFDQLPAVLGAQGFGAGRHCWEVETADAASCRDSSGEDADDEESHYAVGAAGESVQRKGCVRLCPAGAVWAVEGRGGRLWALTAPEPTLLGGVEPPPRRIRVDLDWERGRVAFYDGRSLDLLYAFQAPGPLGERIFPLFCTCDPRAPLRIVPAES | 2.632 | 3.37 | – | – | – | – |
| TOR3A (protein, UniProt Q9H497 26-397, looked up) Torsin-3A: ASRPWEGTDEPGSAWAWPGFQRLQEQLRAAGALSKRYWTLFSCQVWPDDCDEDEEAATGPLGWRLPLLGQRYLDLLTTWYCSFKDCCPRGDCRISNNFTGLEWDLNVRLHGQHLVQQLVLRTVRGYLETPQPEKALALSFHGWSGTGKNFVARMLVENLYRDGLMSDCVRMFIATFHFPHPKYVDLYKEQLMSQIRETQQLCHQTLFIFDEAEKLHPGLLEVLGPHLERRAPEGHRAESPWTIFLFLSNLRGDIINEVVLKLLKAGWSREEITMEHLEPHLQAEIVETIDNGFGHSRLVKENLIDYFIPFLPLEYRHVRLCARDAFLSQELLYKEETLDEIAQMMVYVPKEEQLFSSQGCKSISQRINYFLS | 8.654 | 8.16 | – | – | – | – |
| GART (protein, UniProt P22102 2-1010, looked up) Trifunctional purine …: AARVLIIGSGGREHTLAWKLAQSHHVKQVLVAPGNAGTACSEKISNTAISISDHTALAQFCKEKKIEFVVVGPEAPLAAGIVGNLRSAGVQCFGPTAEAAQLESSKRFAKEFMDRHGIPTAQWKAFTKPEEACSFILSADFPALVVKASGLAAGKGVIVAKSKEEACKAVQEIMQEKAFGAAGETIVIEELLDGEEVSCLCFTDGKTVAPMPPAQDHKRLLEGDGGPNTGGMGAYCPAPQVSNDLLLKIKDTVLQRTVDGMQQEGTPYTGILYAGIMLTKNGPKVLEFNCRFGDPECQVILPLLKSDLYEVIQSTLDGLLCTSLPVWLENHTALTVVMASKGYPGDYTKGVEITGFPEAQALGLEVFHAGTALKNGKVVTHGGRVLAVTAIRENLISALEEAKKGLAAIKFEGAIYRKDVGFRAIAFLQQPRSLTYKESGVDIAAGNMLVKKIQPLAKATSRSGCKVDLGGFAGLFDLKAAGFKDPLLASGTDGVGTKLKIAQLCNKHDTIGQDLVAMCVNDILAQGAEPLFFLDYFSCGKLDLSVTEAVVAGIAKACGKAGCALLGGETAEMPDMYPPGEYDLAGFAVGAMERDQKLPHLERITEGDVVVGIASSGLHSNGFSLVRKIVAKSSLQYSSPAPDGCGDQTLGDLLLTPTRIYSHSLLPVLRSGHVKAFAHITGGGLLENIPRVLPEKLGVDLDAQTWRIPRVFSWLQQEGHLSEEEMARTFNCGVGAVLVVSKEQTEQILRDIQQHKEEAWVIGSVVARAEGSPRVKVKNLIESMQINGSVLKNGSLTNHFSFEKKKARVAVLISGTGSNLQALIDSTREPNSSAQIDIVISNKAAVAGLDKAERAGIPTRVINHKLYKNRVEFDSAIDLVLEEFSIDIVCLAGFMRILSGPFVQKWNGKMLNIHPSLLPSFKGSNAHEQALETGVTVTGCTVHFVAEDVDAGQIILQEAVPVKRGDTVATLSERVKLAEHKIFPAALQLVASGTVQLGENGKICWVKEE | 3.587 | 4.51 | DOWN | -0.918 | DOWN | – |
| HNRNPC (protein, UniProt P07910 2-306, looked up) Heterogeneous nuclear …: ASNVTNKTDPRSMNSRVFIGNLNTLVVKKSDVEAIFSKYGKIVGCSVHKGFAFVQYVNERNARAAVAGEDGRMIAGQVLDINLAAEPKVNRGKAGVKRSAAEMYGSVTEHPSPSPLLSSSFDLDYDFQRDYYDRMYSYPARVPPPPPIARAVVPSKRQRVSGNTSRRGKSGFNSKSGQRGSSKSGKLKGDDLQAIKKELTQIKQKVDSLLENLEKIEKEQSKQAVEMKNDKSEEEQSSSSVKKDETNVKMESEGGADDSAEEGDLLDDDDNEDRGDDQLELIKDDEKEAEEGEDDRDSANGEDDS | 7.723 | 8.47 | DOWN | -0.7428 | DOWN | −0.7428 |
| NDNF (protein, UniProt Q8TB73 20-568, looked up) Protein NDNF: QKLPTRDEELFQMQIRDKAFFHDSSVIPDGAEISSYLFRDTPKRYFFVVEEDNTPLSVTVTPCDAPLEWKLSLQELPEDRSGEGSGDLEPLEQQKQQIINEEGTELFSYKGNDVEYFISSSSPSGLYQLDLLSTEKDTHFKVYATTTPESDQPYPELPYDPRVDVTSLGRTTVTLAWKPSPTASLLKQPIQYCVVINKEHNFKSLCAVEAKLSADDAFMMAPKPGLDFSPFDFAHFGFPSDNSGKERSFQAKPSPKLGRHVYSRPKVDIQKICIGNKNIFTVSDLKPDTQYYFDVFVVNINSNMSTAYVGTFARTKEEAKQKTVELKDGKITDVFVKRKGAKFLRFAPVSSHQKVTFFIHSCLDAVQIQVRRDGKLLLSQNVEGIQQFQLRGKPKAKYLVRLKGNKKGASMLKILATTRPTKQSFPSLPEDTRIKAFDKLRTCSSATVAWLGTQERNKFCIYKKEVDDNYNEDQKKREQNQCLGPDIRKKSEKVLCKYFHSQNLQKAVTTETIKGLQPGKSYLLDVYVIGHGGHSVKYQSKVVKTRKFC | 4.696 | 2.86 | – | 1.84 | – | – |
| LIPG (protein, UniProt Q9Y5X9 21-500, looked up) Endothelial lipase: SPVPFGPEGRLEDKLHKPKATQTEVKPSVRFNLRTSKDPEHEGCYLSVGHSQPLEDCSFNMTAKTFFIIHGWTMSGIFENWLHKLVSALHTREKDANVVVVDWLPLAHQLYTDAVNNTRVVGHSIARMLDWLQEKDDFSLGNVHLIGYSLGAHVAGYAGNFVKGTVGRITGLDPAGPMFEGADIHKRLSPDDADFVDVLHTYTRSFGLSIGIQMPVGHIDIYPNGGDFQPGCGLNDVLGSIAYGTITEVVKCEHERAVHLFVDSLVNQDKPSFAFQCTDSNRFKKGICLSCRKNRCNSIGYNAKKMRNKRNSKMYLKTRAGMPFRVYHYQMKIHVFSYKNMGEIEPTFYVTLYGTNADSQTLPLEIVERIEQNATNTFLVYTEEDLGDLLKIQLTWEGASQSWYNLWKEFRSYLSQPRNPGRELNIRRIRVKSGETQRKLTFCTEDPENTSISPGRELWFRKCRDGWRMKNETSPTVELP | 5.060 | 6.04 | DOWN | -0.982 | DOWN | – |
| MUCL1 (protein, UniProt Q96DR8 21-90, looked up) Mucin-like protein 1: NPTTAAPADTYPATGPADDEAPDAETTAAATTATTAAPTTATTAASTTARKDIPVLPKWVGDLPNGRVCP | 6.887 | 7.72 | – | – | – | – |
| ADAP2 (protein, UniProt Q9NPF8 1-381, looked up) Arf-GAP with dual PH …: MGDRERNKKRLLELLRAPDTGNAHCADCGAADPDWASYKLGIFICLNCCGVHRNFPDISRVKSVRLDFWDDSIVEFMIHNGNLRVKAKFEARVPAFYYIPQANDCLVLKEQWIRAKYERREFMADGETISLPGNREGFLWKRGRDNSQFLRRKFVLLAREGLLKYFTKEQGKSPKAVISIKDLNATFQTEKIGHPHGLQITYRRDGHTRNLFVYHESGKEIVDWFNALRAARLQYLKMAFPELPESELVPFLTRNYLKQGFMEKTGPKQKEPFKKRWFALDCHERRLLYYKNPLDAFEQGQVFLGNKEQGYEAYEDLPKGIRGNRWKAGLTIVTPERRFVLTCPSEKEQQEWLESLRGVLSSPLTPLNRLTASTESGRSSR | 11.456 | 11.70 | – | – | – | −0.2459 |
| MFAP5 (protein, UniProt Q13361 22-173, looked up) Microfibrillar-associated …: IPLGVNSQRGDDVTQATPETFTEDPNLVNDPATDETVLAVLADIAPSTDDLASLSEKNTTAECWDEKFTCTRLYSVHRPVKQCIHQLCFTSLRRMYIVNKEICSRLVCKEHEAMKDELCRQMAGLPPRRLRRSNYFRLPPCENVDLQRPNGL | 5.634 | 4.27 | – | – | – | 1.3666 |

Source: patent publication US20260266848A1, “COMPOSITIONS AND METHODS FOR DIAGNOSING AND TREATING DYSTONIA” (Duke University, priority 2023, published 2026)
